Source: paper PMC7819943, “Rice protein-binding microarrays: a tool to detect cis-acting elements near promoter regions in rice”
Some of the results follow.

Amino acid sequences for entries named in this document (tags omitted).
UniProt Q0JBA9, entry or part of it: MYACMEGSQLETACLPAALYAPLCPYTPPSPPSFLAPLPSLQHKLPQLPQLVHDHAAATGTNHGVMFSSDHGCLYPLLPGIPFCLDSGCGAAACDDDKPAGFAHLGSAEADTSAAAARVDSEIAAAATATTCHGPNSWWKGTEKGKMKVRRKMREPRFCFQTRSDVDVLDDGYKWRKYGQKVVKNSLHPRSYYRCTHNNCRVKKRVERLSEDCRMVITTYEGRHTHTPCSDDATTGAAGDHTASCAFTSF

Target: OsWRKY34 (Oryza sativa, UniProt Q0JBA9 1-250)
Test: protein-binding microarray (RPBM); PBS, 2% BSA, 51.3 ng/ul salmon testes DNA, 50 uM zinc acetate, 200 nM TF, 25 C, 1 h; high values mean tight binding
Settings: protein: recombinant; tags: N-terminal polyhistidine and DsRed monomer fusion (pET32a); label: CyDye5-dUTP incorporated in the synthesized complementary strand; 3' TTTTT single-stranded linker to array surface; dsDNA, one strand shown
How it was run: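 Transcription factors were made in E. coli BL21-CodonPlus as N-terminal fusions to a polyhistidine tag and DsRed, then purified on Ni–NTA. After primer extension with Cy5-dUTP and blocking with 2% BSA, a custom Agilent array was exposed for 1 h at 25 °C to 200 nM protein in PBS, 2% BSA, salmon testes DNA and 50 µM zinc acetate. Washed arrays were scanned on an Axon 4000B, and the binding signal is per-feature fluorescence intensity in arbitrary units.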

Sequence | binding signal
CCCAATTTTTTGTCTCTACTAGGGTTTGGTTTCGGTCTGACGGAGTCACCTAGTGCAG | 8230 fluorescence intensity (a.u.)
ACTTATATTTTGGTTCAGCCCTTTCCTGCACCTCCACTTTCGGAGTCACCTAGTGCAG | 9300 fluorescence intensity (a.u.)
TTGCATGAGAGCCAATACTACCCACTTTTCCTTATCTCTCCGGAGTCACCTAGTGCAG | 9380 fluorescence intensity (a.u.)
TCTATCCATCTATGACTTTATGAAATCATGTTTATACCGTCGGAGTCACCTAGTGCAG | 9860 fluorescence intensity (a.u.)
AACTGGTTGGAGCTCCGTTTCTCTACTCTTTGAGCTTCTTCGGAGTCACCTAGTGCAG | 8240 fluorescence intensity (a.u.)
AATATATGACGCCGTTAACTTTTCGAACAACATTTGACTACGGAGTCACCTAGTGCAG | 9760 fluorescence intensity (a.u.)
CCCATTGTTCCCGCCGCCGCCGCGCCACGCGTCGCTCTGACGGAGTCACCTAGTGCAG | 12200 fluorescence intensity (a.u.)
TTGGTTTGTATTGCGTTGTTTTGCACTTTTGTTTGTTGTGCGGAGTCACCTAGTGCAG | 8300 fluorescence intensity (a.u.)
AAGTCGTCGCCTCCGGATTGCCCGCTGCTTGCCACCTCTCCGGAGTCACCTAGTGCAG | 8110 fluorescence intensity (a.u.)
ATTTTTTGCTTCAGGAATTCATCTTTTTTATTTTTTATTTCGGAGTCACCTAGTGCAG | 9060 fluorescence intensity (a.u.)
CTTATATGCCATTGGTCCAAATTTGCGCACCCTCTCGTGCCGGAGTCACCTAGTGCAG | 10100 fluorescence intensity (a.u.)
TGGGATGTATTTGAGTTGTGATGCATTTCTTTTAGGATTTCGGAGTCACCTAGTGCAG | 8310 fluorescence intensity (a.u.)
GCAAATGCCATTCTTCAGGTCGCCTTCACAAATAACCAACCGGAGTCACCTAGTGCAG | 9520 fluorescence intensity (a.u.)
AGTTTCCTGTCCGTTGCTTTTCCAAAAGTTCAAAGATCAACGGAGTCACCTAGTGCAG | 9210 fluorescence intensity (a.u.)
ACAAATTCCGTCCCTGGCCCAAAAGCGGGCTGCTGTTTCCCGGAGTCACCTAGTGCAG | 8660 fluorescence intensity (a.u.)
TGTTGCTTAATTTCAGTCTCAGGCTTGCTTCTACTGTTTTCGGAGTCACCTAGTGCAG | 8790 fluorescence intensity (a.u.)
ACAGTGCTCCTTCTTCTACCTCTGGACAGAGCCGAGCTCTCGGAGTCACCTAGTGCAG | 9320 fluorescence intensity (a.u.)
ATCCAACTTATTGTAGAACCAACACCGTTCTATCATCCACCGGAGTCACCTAGTGCAG | 8970 fluorescence intensity (a.u.)
GTTACACGTGCCATTATTCATGCCCTTATTATATAAACACCGGAGTCACCTAGTGCAG | 8300 fluorescence intensity (a.u.)
CACTATGGCCCGCACGAATTGGCTAACCTTCCAGGCCCAACGGAGTCACCTAGTGCAG | 9640 fluorescence intensity (a.u.)
CCTGCCTCGCCATCACCGGCCGCCGATCGAGTACGTGCGCCGGAGTCACCTAGTGCAG | 8610 fluorescence intensity (a.u.)

Sequence | binding signal
GTTTTCCTTTTTCTTTCTTTTCTTTTATTTTTTTTTCTAACGGAGTCACCTAGTGCAG | 9860 fluorescence intensity (a.u.)
AGTTGCTAGGCCCAGATCATCCAATATATTATATATATAGCGGAGTCACCTAGTGCAG | 8330 fluorescence intensity (a.u.)
CTATGGTAACCTTTTGCGTGATTGTCCTGTAAATATGTCTCGGAGTCACCTAGTGCAG | 8510 fluorescence intensity (a.u.)
CAATTTATCATCCACTTTGCTTTCTTTATAATACGATGTTCGGAGTCACCTAGTGCAG | 8120 fluorescence intensity (a.u.)
CACGTGCCTACTACCGCCCAACCTCTGACACGATCGACGACGGAGTCACCTAGTGCAG | 8380 fluorescence intensity (a.u.)
CAATGGTCTATATCTACTACTCCTTTGTGTACATCCTTAACGGAGTCACCTAGTGCAG | 8320 fluorescence intensity (a.u.)
AAGCCCGGACCTCGTGAACCAACTCCACCCATGGACTACTCGGAGTCACCTAGTGCAG | 8940 fluorescence intensity (a.u.)
CGGCGGTGGGCGGGGCTTCTTGTAGGCTGGGCTGTACCAGCGGAGTCACCTAGTGCAG | 10200 fluorescence intensity (a.u.)
TTTACCAACCAGATGTTCAGCTCTTCGGTTTGGACCATTTCGGAGTCACCTAGTGCAG | 10100 fluorescence intensity (a.u.)
CTGGCCGCACTTCAGCCGCTCGCCTTTTGCTTGGGCCGCGCGGAGTCACCTAGTGCAG | 8920 fluorescence intensity (a.u.)
CAACTATTGTATGAATTGACTATTACATTGGCTATAGATGCGGAGTCACCTAGTGCAG | 9810 fluorescence intensity (a.u.)
CCACGGTTTCTTTGTCCTTGTTTCTTGTTGATTGCAGGATCGGAGTCACCTAGTGCAG | 11900 fluorescence intensity (a.u.)
GAGCCGTCCCCAAGAATCTACTTACTTGCGATTATCCAGGCGGAGTCACCTAGTGCAG | 8240 fluorescence intensity (a.u.)
ATACCCGATCTCATTATTATGAACCAGTTATGTAATAACACGGAGTCACCTAGTGCAG | 8020 fluorescence intensity (a.u.)
TGTTTCATAGTACTGTAGCGAATAATCCTGTCCGTTCGCTCGGAGTCACCTAGTGCAG | 8080 fluorescence intensity (a.u.)
CGCGGCGCCAGTATTCGTCACGCATCTCGTTTTCTCTTTACGGAGTCACCTAGTGCAG | 9790 fluorescence intensity (a.u.)
ATCTTTCTTATGCTGGCCATGATCTATGTTGCTGTTTTTGCGGAGTCACCTAGTGCAG | 17700 fluorescence intensity (a.u.)
AGAGAGAGATAGAGATCTGAGTTGACCGCCGTCGACTTAACGGAGTCACCTAGTGCAG | 8290 fluorescence intensity (a.u.)
AGTTCTTTCATCGTATTCTATTATCTAGCCTTAGCTTTTACGGAGTCACCTAGTGCAG | 8140 fluorescence intensity (a.u.)
GGTGTGAATGCATGCATGGCCACATTTCATATTTCATATACGGAGTCACCTAGTGCAG | 8050 fluorescence intensity (a.u.)
CGCTTCGTCATCTCGTCGTCGTTTGTGTTCTTGGATTGGGCGGAGTCACCTAGTGCAG | 14000 fluorescence intensity (a.u.)

Given comma-delimited: entries from further up
Sequence,binding signal
CAATGGTCTATATCTACTACTCCTTTGTGTACATCCTTAACGGAGTCACCTAGTGCAG,8320 fluorescence intensity (a.u.)
AAGCCCGGACCTCGTGAACCAACTCCACCCATGGACTACTCGGAGTCACCTAGTGCAG,8940 fluorescence intensity (a.u.)
